For this assay, the system named is BDF1 mice, P388 leukemia ip, median survival T/C. The assay is described as follows: NCI In Vivo Anticancer Drug Screen. Data for tumor model P388 Leukemia (intraperitoneal) in B6D2F1 (BDF1) mice. Particulars: T/C endpoint: median survival time, higher T/C = longer survival. Summed up:
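In tumour-bearing mice, survival after compound treatment is set against the vehicle group and given as a quotient.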

[1] abbreviates: dose: 200.0 mg/kg/injection, schedule: Q01DX009 (ip), vehicle: Klucel (hydroxypropylcellulose) (HPC).
[2] abbreviates: dose: 16.5 mg/kg/injection, schedule: Q04DX003 (ip), vehicle: saline.
[3] abbreviates: dose: 25.0 mg/kg/injection, schedule: Q04DX003 (ip), vehicle: saline.
The mark [4] stands for this setting: dose: 50.0 mg/kg/injection, schedule: Q04DX003 (ip), vehicle: saline.
[5] abbreviates: dose: 100.0 mg/kg/injection, schedule: Q04DX003 (ip), vehicle: saline.
Where [6] appears, read: dose: 50.0 mg/kg/injection, schedule: Q01DX009 (ip), vehicle: Klucel (hydroxypropylcellulose) (HPC).

This is an account of results in PubChem BioAssay AID328 (DTP/NCI, 2004).

SMILES strings stand for the structures. The list does not hold the whole screen: it is rich in T/C values a quarter to a half above the control, in often repeated tests (any T/C) and in doses without a T/C. Further doses and runs are listed elsewhere. T/C gives the treated animals as a percentage of the vehicle group. Some doses have a count of surviving animals in place of a T/C: the source files T/C as zero there, which appears to mark a toxic dose or a test without result, not a measured value. Some survivor counts are full or nearly so, which does not show that the dose was tolerated: survival well below the control is almost never listed, so the zero probably covers shortened survival too. Survivors were counted at the toxicity check, usually on the fifth day, unless a day is given; later deaths do not show. Schedule codes are those of the source, taken here to give the interval after Q, in days (D) or hours (H), and the number of doses after X. Some entries were tested several times; the results are listed from low to high. Where survival is the endpoint, this PubChem deposit counts one and a half times the control or more as active, and values a quarter to a half above the control carry no call in these data; other NCI protocols may use other cut-offs.

With `CCCCc1ccc(NC(=O)N(CCCl)N=O)cc1`, the T/C was 145 % of control (dose: 1.25 mg/kg/injection, schedule: Q01DX009 (ip), vehicle: Klucel (hydroxypropylcellulose) (HPC)); 127 % of control (dose: 2.5 mg/kg/injection, schedule: Q04DX003 (ip), vehicle: other); 140 % of control (dose: 5.0 mg/kg/injection, schedule: Q04DX003 (ip), vehicle: other). Also, the survivor count is reported as 6 of 6 (dose: 32.25 mg/kg/injection, schedule: Q04DX003 (ip), vehicle: Klucel (hydroxypropylcellulose) (HPC)); 3 of 6 (dose: 62.5 mg/kg/injection, schedule: Q01DX009 (ip), vehicle: Klucel (hydroxypropylcellulose) (HPC)); 5 of 6 (dose: 62.5 mg/kg/injection, schedule: Q04DX003 (ip), vehicle: Klucel (hydroxypropylcellulose) (HPC)); 1 of 6 (dose: 125.0 mg/kg/injection, schedule: Q01DX009 (ip), vehicle: Klucel (hydroxypropylcellulose) (HPC)); 1 of 6 (dose: 125.0 mg/kg/injection, schedule: Q04DX003 (ip), vehicle: Klucel (hydroxypropylcellulose) (HPC)); 0 of 6 (dose: 250.0 mg/kg/injection, schedule: Q01DX009 (ip), vehicle: Klucel (hydroxypropylcellulose) (HPC)). Further, the survivor count is on record as 0 of 6 (dose: 250.0 mg/kg/injection, schedule: Q04DX003 (ip), vehicle: Klucel (hydroxypropylcellulose) (HPC)) and 0 of 6 (dose: 500.0 mg/kg/injection, schedule: Q04DX003 (ip), vehicle: Klucel (hydroxypropylcellulose) (HPC)).

In the case of `CCCC(=O)Nc1ccn(C2OC(COC(=O)CCC)C(OC(=O)CCC)C2OC(=O)CCC)c(=O)n1` (stereo not drawn), the T/C under setting [1] is 131 % of control.

For the compound `CC1C(=O)OC2CC[N+]3([O-])CC=C(COC(=O)C(C)(O)C1(C)O)C23` (stereo not drawn), the T/C (dose: 200.0 mg/kg/injection, schedule: Q01DX010 (ip), vehicle: saline) was 125 % of control.

For the compound `CCCCCCOC(=O)/C=C(/C)OCCCCCC`, the T/C (dose: 200.0 mg/kg/injection, schedule: Q01DX009 (ip), vehicle: saline with Tween-80) was 130 % of control.

For `CCOP(=O)(OCC)Oc1cnn(C)c(=O)c1SCC`, the survivor count (dose: 50.0 mg/kg/injection, schedule: Q01DX005 (ip), vehicle: saline) is listed as 0 of 6; the survivor count (dose: 100.0 mg/kg/injection, schedule: Q01DX005 (ip), vehicle: saline) is given as 0 of 6; the survivor count (dose: 200.0 mg/kg/injection, schedule: Q01DX005 (ip), vehicle: saline) is 0 of 6.

On to `CC1(c2cccc3ccccc23)NC(=O)c2ccccc2N1` (stereo not drawn), for which the T/C under setting [1] was 130 % of control.

For the compound `O=[N+]([O-])c1ccc(N2CCN(CCO)CC2)c2nonc12`, the survivor count (dose: 60.0 mg/kg/injection, schedule: Q01DX009 (ip), vehicle: saline with Tween-80) is 6 of 7 and the survivor count (dose: 100.0 mg/kg/injection, schedule: Q04DX003 (ip), vehicle: saline with Tween-80) is 4 of 7.

As for `C[n+]1c(-c2ccccc2)c2cc(N)ccc2c2ccccc21`, the T/C (dose: 4.7 mg/kg/injection, schedule: Q04DX003 (ip), vehicle: saline) was 125 % of control; the T/C (dose: 6.6 mg/kg/injection, schedule: Q01DX009 (ip), vehicle: saline) is 131 % of control; the T/C (dose: 7.2 mg/kg/injection, schedule: Q04DX003 (ip), vehicle: saline) is 136 % of control; the T/C under setting [2] was 125 % of control; the T/C under setting [3] is 130 and 131 % of control. Moreover, the survivor count by setting is: under setting [2], 6 of 6; under setting [3], 6 of 6; (dose: 37.5 mg/kg/injection, schedule: Q04DX003 (ip), vehicle: saline) 2 of 6 and 5 of 6; under setting [4], 0 of 6; under setting [5], 0 of 6.

Turning to `c1ccc2c(CC3NCCN3)cccc2c1`, the survivor count reads like this: (dose: 50.0 mg/kg/injection, schedule: Q01DX009 (ip), vehicle: saline) 3 of 6; (dose: 100.0 mg/kg/injection, schedule: Q01DX009 (ip), vehicle: saline) 2 of 6; (dose: 200.0 mg/kg/injection, schedule: Q01DX009 (ip), vehicle: saline) 0 of 6.

As for `COc1cc(C(=O)NCC2(C)OC3(OC(=O)C2O)C(=O)N/C(=C(\C=O)C(C)=O)OC3C(O)C2CN2C(C)=O)c2cccc(C)c2c1` (stereo not drawn), the survivor count reads like this: (dose: 0.2 mg/kg/injection, schedule: Q01DX010 (ip), vehicle: alkali diluted with saline) 6 of 6; (dose: 0.4 mg/kg/injection, schedule: Q01DX010 (ip), vehicle: alkali diluted with saline) 0 of 6; (dose: 0.8 mg/kg/injection, schedule: Q01DX010 (ip), vehicle: alkali diluted with saline) 0 of 6; (dose: 1.6 mg/kg/injection, schedule: Q01DX010 (ip), vehicle: alkali diluted with saline) 0 of 6. Also, where the note is “dose: 6.3 micrograms/kg/injection, schedule: Q01DX010 (ip), vehicle: other”, the T/C is 135 % of control.

`COc1cc(OC)c(NC(=S)Nc2cc(C)ccc2OC)cc1Cl`: the T/C (dose: 50.0 mg/kg/injection, schedule: Q01DX009 (ip), vehicle: DMSO) was 129 % of control.

Turning to `Cc1c(C)c(CO)c(C)c(C)c1CO`, the T/C is, setting by setting: (dose: 12.5 mg/kg/injection, schedule: Q01DX009 (ip), vehicle: Klucel (hydroxypropylcellulose) (HPC)) 130 % of control; (dose: 25.0 mg/kg/injection, schedule: Q01DX009 (ip), vehicle: Klucel (hydroxypropylcellulose) (HPC)) 125 % of control. Also, the survivor count under setting [6] was 4 of 6.

Take `CCOc1ccc(Nc2ncnc3nc[nH]c23)cc1CN(CCCl)CCCl`: the T/C was 145 % of control (dose: 0.44 mg/kg/injection, schedule: Q04DX003 (ip), vehicle: saline); 129 % of control (dose: 0.45 mg/kg/injection, schedule: Q04DX003 (ip), vehicle: saline); 136 % of control (dose: 0.5 mg/kg/injection, schedule: Q01DX009 (ip), vehicle: saline); 133 % of control (dose: 0.66 mg/kg/injection, schedule: Q04DX003 (ip), vehicle: saline); 144 % of control (dose: 1.33 mg/kg/injection, schedule: Q04DX003 (ip), vehicle: saline); 149 % of control (dose: 2.0 mg/kg/injection, schedule: Q04DX003 (ip), vehicle: saline). Under “dose: 4.0 mg/kg/injection, schedule: Q01DX009 (ip), vehicle: saline”, the T/C was 145 % of control. In addition, the survivor count (dose: 5.0 mg/kg/injection, schedule: Q01DX009 (ip), vehicle: saline) is 4 of 6; the survivor count (dose: 7.5 mg/kg/injection, schedule: Q01DX009 (ip), vehicle: saline) is reported as 2 of 6; the survivor count (dose: 8.0 mg/kg/injection, schedule: Q01DX009 (ip), vehicle: saline) is reported as 1 of 6; the survivor count under setting [3] is 4 of 6; the survivor count under setting [4] is reported as 3 of 6; the survivor count under setting [5] is 0 of 6.

In the case of `Cc1ccc(C2NC(=O)c3ccccc3N2)s1` (stereo not drawn), the T/C is, setting by setting: (dose: 100.0 mg/kg/injection, schedule: Q01DX009 (ip), vehicle: Klucel (hydroxypropylcellulose) (HPC)) 100, 115, 116, 120 % of control; under setting [1], 127, 134, 140, 161 % of control.

Turning to `Oc1ccccc1/C=N\c1nccs1`, the survivor count (dose: 400.0 mg/kg/injection, schedule: Q01DX009 (ip), vehicle: Klucel (hydroxypropylcellulose) (HPC)) was 2 of 6.

As for `O=[N+]([O-])c1cc(S(=O)(=O)OCC2CO2)ccc1Cl` (stereo not drawn), the survivor count is, setting by setting: (dose: 25.0 mg/kg/injection, schedule: Q04DX003 (ip), vehicle: Klucel (hydroxypropylcellulose) (HPC)) 4 of 6; under setting [6], 1 of 6; (dose: 50.0 mg/kg/injection, schedule: Q04DX003 (ip), vehicle: Klucel (hydroxypropylcellulose) (HPC)) 5 of 6; (dose: 200.0 mg/kg/injection, schedule: Q04DX003 (ip), vehicle: Klucel (hydroxypropylcellulose) (HPC)) 0 of 6; (dose: 400.0 mg/kg/injection, schedule: Q04DX003 (ip), vehicle: Klucel (hydroxypropylcellulose) (HPC)) 0 of 6.
